Binding data for seven molecules are collected here from paper PMC9372748.

Amino acid sequences for entries named in this document (tags omitted). A change or cut given only in a name is not applied to a line headed by its entry.
UniProt P35637: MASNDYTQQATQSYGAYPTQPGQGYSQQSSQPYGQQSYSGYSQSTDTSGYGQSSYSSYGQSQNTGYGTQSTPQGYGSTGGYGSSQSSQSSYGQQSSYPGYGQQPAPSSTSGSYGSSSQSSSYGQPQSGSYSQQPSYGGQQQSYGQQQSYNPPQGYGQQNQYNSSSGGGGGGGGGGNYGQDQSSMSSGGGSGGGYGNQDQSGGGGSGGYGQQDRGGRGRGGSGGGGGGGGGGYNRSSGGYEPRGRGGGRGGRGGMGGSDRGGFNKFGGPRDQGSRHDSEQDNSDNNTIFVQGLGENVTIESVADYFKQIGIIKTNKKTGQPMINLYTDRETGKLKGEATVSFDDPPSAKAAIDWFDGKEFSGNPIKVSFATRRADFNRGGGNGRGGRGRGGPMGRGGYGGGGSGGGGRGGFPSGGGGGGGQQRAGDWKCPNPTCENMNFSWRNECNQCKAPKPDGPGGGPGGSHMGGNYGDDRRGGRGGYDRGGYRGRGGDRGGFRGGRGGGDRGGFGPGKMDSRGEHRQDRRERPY
UniProt Q9UHV7: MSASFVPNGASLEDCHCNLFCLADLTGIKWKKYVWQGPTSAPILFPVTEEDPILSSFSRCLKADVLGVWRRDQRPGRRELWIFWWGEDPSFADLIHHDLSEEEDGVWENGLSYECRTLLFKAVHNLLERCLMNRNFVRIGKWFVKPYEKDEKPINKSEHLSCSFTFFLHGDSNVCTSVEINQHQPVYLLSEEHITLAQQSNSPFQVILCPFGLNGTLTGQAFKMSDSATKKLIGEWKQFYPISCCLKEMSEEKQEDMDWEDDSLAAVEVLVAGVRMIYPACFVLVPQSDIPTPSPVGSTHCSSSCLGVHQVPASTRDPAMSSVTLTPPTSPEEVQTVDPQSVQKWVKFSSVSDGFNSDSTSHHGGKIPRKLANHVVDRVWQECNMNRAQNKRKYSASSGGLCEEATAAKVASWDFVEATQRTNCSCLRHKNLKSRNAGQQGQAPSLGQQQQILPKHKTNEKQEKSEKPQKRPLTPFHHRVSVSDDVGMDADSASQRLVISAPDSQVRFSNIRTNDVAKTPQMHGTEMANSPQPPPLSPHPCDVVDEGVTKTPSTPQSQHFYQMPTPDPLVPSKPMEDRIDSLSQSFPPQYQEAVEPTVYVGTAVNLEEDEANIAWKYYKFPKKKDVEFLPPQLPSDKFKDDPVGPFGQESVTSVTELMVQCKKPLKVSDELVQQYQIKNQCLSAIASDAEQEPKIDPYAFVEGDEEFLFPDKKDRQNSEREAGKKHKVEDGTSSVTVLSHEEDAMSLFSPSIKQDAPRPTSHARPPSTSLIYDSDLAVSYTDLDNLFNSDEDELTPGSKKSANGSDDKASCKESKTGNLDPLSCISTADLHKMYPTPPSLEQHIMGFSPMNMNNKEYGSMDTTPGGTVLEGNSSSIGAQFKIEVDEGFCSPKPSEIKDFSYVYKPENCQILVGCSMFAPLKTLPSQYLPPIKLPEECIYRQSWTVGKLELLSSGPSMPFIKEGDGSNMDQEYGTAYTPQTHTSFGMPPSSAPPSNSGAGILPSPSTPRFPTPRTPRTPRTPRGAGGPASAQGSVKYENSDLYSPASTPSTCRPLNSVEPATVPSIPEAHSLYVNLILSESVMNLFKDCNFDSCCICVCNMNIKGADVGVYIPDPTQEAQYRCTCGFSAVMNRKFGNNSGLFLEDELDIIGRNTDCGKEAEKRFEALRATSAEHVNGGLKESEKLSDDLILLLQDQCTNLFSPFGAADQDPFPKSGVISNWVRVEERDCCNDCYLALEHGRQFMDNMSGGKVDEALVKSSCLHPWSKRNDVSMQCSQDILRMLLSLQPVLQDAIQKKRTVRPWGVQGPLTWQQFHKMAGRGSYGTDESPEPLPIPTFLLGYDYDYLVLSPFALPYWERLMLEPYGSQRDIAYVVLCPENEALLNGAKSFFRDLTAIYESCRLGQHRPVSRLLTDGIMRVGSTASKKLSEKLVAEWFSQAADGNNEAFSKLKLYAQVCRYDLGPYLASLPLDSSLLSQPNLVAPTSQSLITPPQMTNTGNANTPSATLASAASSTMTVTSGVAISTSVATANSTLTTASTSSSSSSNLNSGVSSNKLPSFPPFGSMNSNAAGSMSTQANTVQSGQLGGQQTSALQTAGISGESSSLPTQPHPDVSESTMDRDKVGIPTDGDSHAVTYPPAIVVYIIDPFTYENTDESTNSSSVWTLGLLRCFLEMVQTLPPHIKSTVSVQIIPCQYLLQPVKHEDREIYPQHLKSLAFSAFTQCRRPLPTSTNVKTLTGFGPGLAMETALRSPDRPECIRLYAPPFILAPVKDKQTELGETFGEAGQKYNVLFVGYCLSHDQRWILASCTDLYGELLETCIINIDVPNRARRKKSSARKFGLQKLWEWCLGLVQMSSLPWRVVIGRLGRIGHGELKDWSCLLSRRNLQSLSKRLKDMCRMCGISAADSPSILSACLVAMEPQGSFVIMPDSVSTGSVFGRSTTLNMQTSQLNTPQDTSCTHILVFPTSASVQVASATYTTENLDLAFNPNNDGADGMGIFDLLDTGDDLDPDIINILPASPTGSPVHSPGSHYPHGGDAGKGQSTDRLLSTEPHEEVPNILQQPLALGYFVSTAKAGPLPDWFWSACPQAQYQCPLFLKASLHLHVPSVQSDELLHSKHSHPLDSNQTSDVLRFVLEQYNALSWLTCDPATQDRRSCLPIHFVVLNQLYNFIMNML
UniProt O75128: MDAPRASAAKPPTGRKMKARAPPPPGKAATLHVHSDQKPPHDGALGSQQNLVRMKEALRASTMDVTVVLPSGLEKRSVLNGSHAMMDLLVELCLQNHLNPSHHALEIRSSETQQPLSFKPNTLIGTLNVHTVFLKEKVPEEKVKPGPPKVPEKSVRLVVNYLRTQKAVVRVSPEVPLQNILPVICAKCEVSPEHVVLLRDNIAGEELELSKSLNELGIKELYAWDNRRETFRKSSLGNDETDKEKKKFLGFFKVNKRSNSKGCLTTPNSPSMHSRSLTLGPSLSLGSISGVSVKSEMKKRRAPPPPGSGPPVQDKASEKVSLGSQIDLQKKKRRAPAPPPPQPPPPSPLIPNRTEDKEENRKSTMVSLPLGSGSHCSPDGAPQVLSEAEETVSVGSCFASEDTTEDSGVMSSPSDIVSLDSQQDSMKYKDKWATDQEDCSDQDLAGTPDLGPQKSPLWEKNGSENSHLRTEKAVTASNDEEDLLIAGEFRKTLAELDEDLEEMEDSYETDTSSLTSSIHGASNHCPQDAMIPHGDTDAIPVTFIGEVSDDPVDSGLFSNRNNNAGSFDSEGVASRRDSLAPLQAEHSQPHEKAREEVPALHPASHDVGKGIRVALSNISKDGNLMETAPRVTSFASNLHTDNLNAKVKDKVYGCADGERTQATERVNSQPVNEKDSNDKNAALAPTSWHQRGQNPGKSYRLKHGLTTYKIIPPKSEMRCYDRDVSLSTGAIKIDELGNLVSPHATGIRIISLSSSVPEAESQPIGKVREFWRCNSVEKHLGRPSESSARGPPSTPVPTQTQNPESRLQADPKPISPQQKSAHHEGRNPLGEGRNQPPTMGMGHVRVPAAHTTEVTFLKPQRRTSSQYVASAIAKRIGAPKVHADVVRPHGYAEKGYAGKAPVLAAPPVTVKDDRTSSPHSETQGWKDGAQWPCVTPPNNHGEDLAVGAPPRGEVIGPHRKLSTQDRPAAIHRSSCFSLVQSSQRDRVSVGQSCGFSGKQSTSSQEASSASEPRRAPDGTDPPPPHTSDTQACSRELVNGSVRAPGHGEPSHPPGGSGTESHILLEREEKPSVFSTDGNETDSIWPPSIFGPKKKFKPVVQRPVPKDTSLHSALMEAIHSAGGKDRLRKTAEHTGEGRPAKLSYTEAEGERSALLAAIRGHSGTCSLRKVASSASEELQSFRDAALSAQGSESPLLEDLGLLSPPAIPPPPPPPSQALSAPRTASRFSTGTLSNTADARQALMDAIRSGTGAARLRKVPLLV

Read-outs that look alike come from different tables or passages of the source. No constants are given. Whether binding was seen depends on the method and setting. In cells and extracts the contact can be indirect. These calls come from enrichment with a bait or labelling near it, and not all partners need be listed.

What all share (experiment): proximity labelling; APEX2-FUS fusions transfected in HEK293T; 500 uM biotin-phenol 30 min, 1 mM H2O2 1 min; biotinylated proteins enriched on streptavidin magnetic beads, on-bead digestion, label-free LC-MS/MS; SAINT probability >=0.95 against untransfected control cells
In experiment [1] the target is APEX2-FUS WT (human) (UniProt P35637).
The next experiment has as its target APEX2-FUS P525L (human) (UniProt P35637).
In experiment [2] the target is APEX2-FUS WT (human) (UniProt P35637). This is another data set of the same source.

Consider “MED13 (Mediator of RNA polymerase II transcription subunit 13) (from UniProt Q9UHV7 1-2174)”, for which the binding entry with APEX2-FUS WT (human) [1] was “binds”.
With “COBL (Cordon-bleu WH2 repeat protein) (from UniProt O75128 1-1261)”, the binding result in the experiment with APEX2-FUS WT (human) [1] was “binds”.

B1: exportin-7 (XPO7) (protein, UniProt Q9UIA9 1-1087)
chain: MADHVQSLAQLENLCKQLYETTDTTTRLQAEKALVEFTNSPDCLSKCQLLLERGSSSYSQLLAATCLTKLVSRTNNPLPLEQRIDIRNYVLNYLATRPKLATFVTQALIQLYARITKLGWFDCQKDDYVFRNAITDVTRFLQDSVEYCIIGVTILSQLTNEINQADTTHPLTKHRKIASSFRDSSLFDIFTLSCNLLKQASGKNLNLNDESQHGLLMQLLKLTHNCLNFDFIGTSTDESSDDLCTVQIPTSWRSAFLDSSTLQLFFDLYHSIPPSFSPLVLSCLVQIASVRRSLFNNAERAKFLSHLVDGVKRILENPQSLSDPNNYHEFCRLLARLKSNYQLGELVKVENYPEVIRLIANFTVTSLQHWEFAPNSVHYLLSLWQRLAASVPYVKATEPHMLETYTPEVTKAYITSRLESVHIILRDGLEDPLEDTGLVQQQLDQLSTIGRCEYEKTCALLVQLFDQSAQSYQELLQSASASPMDIAVQEGRLTWLVYIIGAVIGGRVSFASTDEQDAMDGELVCRVLQLMNLTDSRLAQAGNEKLELAMLSFFEQFRKIYIGDQVQKSSKLYRRLSEVLGLNDETMVLSVFIGKIITNLKYWGRCEPITSKTLQLLNDLSIGYSSVRKLVKLSAVQFMLNNHTSEHFSFLGINNQSNLTDMRCRTTFYTALGRLLMVDLGEDEDQYEQFMLPLTAAFEAVAQMFSTNSFNEQEAKRTLVGLVRDLRGIAFAFNAKTSFMMLFEWIYPSYMPILQRAIELWYHDPACTTPVLKLMAELVHNRSQRLQFDVSSPNGILLFRETSKMITMYGNRILTLGEVPKDQVYALKLKGISICFSMLKAALSGSYVNFGVFRLYGDDALDNALQTFIKLLLSIPHSDLLDYPKLSQSYYSLLEVLTQDHMNFIASLEPHVIMYILSSISEGLTALDTMVCTGCCSCLDHIVTYLFKQLSRSTKKRTTPLNQESDRFLHIMQQHPEMIQQMLSTVLNIIIFEDCRNQWSMSRPLLGLILLNEKYFSDLRNSIVNSQPPEKQQAMHLCFENLMEGIERNLLTKNRDRFTQNLSAFRREVNDSMKNSTYGVNSNDMMS
As for B1, the binding result with APEX2-FUS P525L (human) and with APEX2-FUS WT (human) [2] was “binds” in each case.

B2: exportin-6 (XPO6) (protein, UniProt Q96QU8 1-1125)
chain: MASEEASLRALESLMTEFFHDCTTNERKREIEELLNNFAQQIGAWRFCLYFLSSTRNDYVMMYSLTVFENLINKMWLGVPSQDKMEIRSCLPKLLLAHHKTLPYFIRNKLCKVIVDIGRQDWPMFYHDFFTNILQLIQSPVTTPLGLIMLKTTSEELACPREDLSVARKEELRKLLLDQVQTVLGLLTGILETVWDKHSVTAATPPPSPTSGESGDLLSNLLQSPSSAKLLNQPIPILDVESEYICSLALECLAHLFSWIPLSASITPSLLTTIFHFARFGCDIRARKMASVNGSSQNCVSGQERGRLGVLAMSCINELMSKNCVPMEFEEYLLRMFQQTFYLLQKITKDNNAHTVKSRLEELDESYIEKFTDFLRLFVSVHLRRIESYSQFPVVEFLTLLFKYTFHQPTHEGYFSCLDIWTLFLDYLTSKIKSRLGDKEAVLNRYEDALVLLLTEVLNRIQFRYNQAQLEELDDETLDDDQQTEWQRYLRQSLEVVAKVMELLPTHAFSTLFPVLQDNLEVYLGLQQFIVTSGSGHRLNITAENDCRRLHCSLRDLSSLLQAVGRLAEYFIGDVFAARFNDALTVVERLVKVTLYGSQIKLYNIETAVPSVLKPDLIDVHAQSLAALQAYSHWLAQYCSEVHRQNTQQFVTLISTTMDAITPLISTKVQDKLLLSACHLLVSLATTVRPVFLISIPAVQKVFNRITDASALRLVDKAQVLVCRALSNILLLPWPNLPENEQQWPVRSINHASLISALSRDYRNLKPSAVAPQRKMPLDDTKLIIHQTLSVLEDIVENISGESTKSRQICYQSLQESVQVSLALFPAFIHQSDVTDEMLSFFLTLFRGLRVQMGVPFTEQIIQTFLNMFTREQLAESILHEGSTGCRVVEKFLKILQVVVQEPGQVFKPFLPSIIALCMEQVYPIIAERPSPDVKAELFELLFRTLHHNWRYFFKSTVLASVQRGIAEEQMENEPQFSAIMQAFGQSFLQPDIHLFKQNLFYLETLNTKQKLYHKKIFRTAMLFQFVNVLLQVLVHKSHDLLQEEIGIAIYNMASVDFDGFFAAFLPEFLTSCDGVDANQKSVLGRNFKMDRDLPSFTQNVHRLVNDLRYYRLCNDSLPPGTVKL
For the molecule B2, the binding result with APEX2-FUS P525L (human) and with APEX2-FUS WT (human) [2] was “binds” in each case.

B3: PHLDB2 (Pleckstrin homology–like domain family B member 2) (protein, UniProt Q86SQ0 1-1253)
chain: MEEHSYIQKELDLQNGSLEEDSVVHSVENDSQNMMESLSPKKYSSSLRFKANGDYSGSYLTLSQPVPAKRSPSPLGTSVRSSPSLAKIQGSKQFSYDGTDKNIPMKPPTPLLNTTSSLSGYPLGRADFDHYTGRDSERALRLSEKPPYSKYSSRHKSHDNVYSLGGLEGRKASGSLLAMWNGSSLSDAGPPPISRSGAASMPSSPKQARKMSIQDSLALQPKLTRHKELASENINLRTRKYSSSSLSHMGAYSRSLPRLYRATENQLTPLSLPPRNSLGNSKRTKLGEKDLPHSVIDNDNYLNFSSLSSGALPYKTSASEGNPYVSSTLSVPASPRVARKMLLASTSSCASDDFDQASYVGTNPSHSLLAGESDRVFATRRNFSCGSVEFDEADLESLRQASGTPQPALRERKSSISSISGRDDLMDYHRRQREERLREQEMERLERQRLETILSLCAEYTKPDSRLSTGTTVEDVQKINKELEKLQLSDEESVFEEALMSPDTRYRCHRKDSLPDADLASCGSLSQSSASFFTPRSTRNDELLSDLTRTPPPPSSTFPKASSESSYLSILPKTPEGISEEQRSQELAAMEETRIVILNNLEELKQKIKDINDQMDESFRELDMECALLDGEQKSETTELMKEKEILDHLNRKIAELEKNIVGEKTKEKVKLDAEREKLERLQELYSEQKTQLDNCPESMREQLQQQLKRDADLLDVESKHFEDLEFQQLEHESRLDEEKENLTQQLLREVAEYQRNIVSRKEKISALKKQANHIVQQAQREQDHFVKEKNNLIMMLQREKENLCNLEKKYSSLSGGKGFPVNPNTLKEGYISVNEINEPCGNSTNLSPSTQFPADADAVATEPATAVLASQPQSKEHFRSLEERKKQHKEGLYLSDTLPRKKTTSSISPHFSSATMGRSITPKAHLPLGQSNSCGSVLPPSLAAMAKDSESRRMLRGYNHQQMSEGHRQKSEFYNRTASESNVYLNSFHYPDHSYKDQAFDTLSLDSSDSMETSISACSPDNISSASTSNIARIEEMERLLKQAHAEKTRLLESREREMEAKKRALEEEKRRREILEKRLQEETSQRQKLIEKEVKIRERQRAQARPLTRYLPVRKEDFDLRSHVETAGHNIDTCYHVSITEKTCRGFLIKMGGKIKTWKKRWFVFDRNKRTFSYYADKHETKLKGVIYFQAIEEVYYDHLKNANKSPNPLLTFSVKTHDRIYYMVAPSPEAMRIWMDVIVTGAEGYTHFLL
For B3, the binding result with APEX2-FUS WT (human) [2] is listed as “binds”.

B4: importin-11 (IPO11) (protein, UniProt Q9UI26 1-975)
chain: MDLNSASTVVLQVLTQATSQDTAVLKPAEEQLKQWETQPGFYSVLLNIFTNHTLDINVRWLAVLYFKHGIDRYWRRVAPHALSEEEKTTLRAGLITNFNEPINQIATQIAVLIAKVARLDCPRQWPELIPTLIESVKVQDDLRQHRALLTFYHVTKTLASKRLAADRKLFYDLASGIYNFACSLWNHHTDTFLQEVSSGNEAAILSSLERTLLSLKVLRKLTVNGFVEPHKNMEVMGFLHGIFERLKQFLECSRSIGTDNVCRDRLEKTIILFTKVLLDFLDQHPFSFTPLIQRSLEFSVSYVFTEVGEGVTFERFIVQCMNLIKMIVKNYAYKPSKNFEDSSPETLEAHKIKMAFFTYPTLTEICRRLVSHYFLLTEEELTMWEEDPEGFTVEETGGDSWKYSLRPCTEVLFIDIFHEYNQTLTPVLLEMMQTLQGPTNVEDMNALLIKDAVYNAVGLAAYELFDSVDFDQWFKNQLLPELQVIHNRYKPLRRRVIWLIGQWISVKFKSDLRPMLYEAICNLLQDQDLVVRIETATTLKLTVDDFEFRTDQFLPYLETMFTLLFQLLQQVTECDTKMHVLHVLSCVIERVNMQIRPYVGCLVQYLPLLWKQSEEHNMLRCAILTTLIHLVQGLGADSKNLYPFLLPVIQLSTDVSQPPHVYLLEDGLELWLVTLENSPCITPELLRIFQNMSPLLELSSENLRTCFKIINGYIFLSSTEFLQTYAVGLCQSFCELLKEITTEGQVQVLKVVENALKVNPILGPQMFQPILPYVFKGIIEGERYPVVMSTYLGVMGRVLLQNTSFFSSLLNEMAHKFNQEMDQLLGNMIEMWVDRMDNITQPERRKLSALALLSLLPSDNSVIQDKFCGIINISVEGLHDVMTEDPETGTYKDCMLMSHLEEPKVTEDEEPPTEQDKRKKMLALKDPVHTVSLQQFIYEKLKAQQEMLGEQGFQSLMETVDTEIVTQLQEFLQGF
Consider B4, for which the binding entry with APEX2-FUS P525L (human) and with APEX2-FUS WT (human) [2] was “binds” in each case.

B5: transportin-2 (TNPO2) (protein, UniProt O14787 1-897)
chain: MDWQPDEQGLQQVLQLLKDSQSPNTATQRIVQDKLKQLNQFPDFNNYLIFVLTRLKSEDEPTRSLSGLILKNNVKAHYQSFPPPVADFIKQECLNNIGDASSLIRATIGILITTIASKGELQMWPELLPQLCNLLNSEDYNTCEGAFGALQKICEDSSELLDSDALNRPLNIMIPKFLQFFKHCSPKIRSHAIACVNQFIMDRAQALMDNIDTFIEHLFALAVDDDPEVRKNVCRALVMLLEVRIDRLIPHMHSIIQYMLQRTQDHDENVALEACEFWLTLAEQPICKEVLASHLVQLIPILVNGMKYSEIDIILLKGDVEEDEAVPDSEQDIKPRFHKSRTVTLPHEAERPDGSEDAEDDDDDDALSDWNLRKCSAAALDVLANVFREELLPHLLPLLKGLLFHPEWVVKESGILVLGAIAEGCMQGMVPYLPELIPHLIQCLSDKKALVRSIACWTLSRYAHWVVSQPPDMHLKPLMTELLKRILDGNKRVQEAACSAFATLEEEACTELVPYLSYILDTLVFAFGKYQHKNLLILYDAIGTLADSVGHHLNQPEYIQKLMPPLIQKWNELKDEDKDLFPLLECLSSVATALQSGFLPYCEPVYQRCVTLVQKTLAQAMMYTQHPEQYEAPDKDFMIVALDLLSGLAEGLGGHVEQLVARSNIMTLLFQCMQDSMPEVRQSSFALLGDLTKACFIHVKPCIAEFMPILGTNLNPEFISVCNNATWAIGEICMQMGAEMQPYVQMVLNNLVEIINRPNTPKTLLENTGRLTSPSAIPAITIGRLGYVCPQEVAPMLQQFIRPWCTSLRNIRDNEEKDSAFRGICMMIGVNPGGVVQDFIFFCDAVASWVSPKDDLRDMFYKILHGFKDQVGEDNWQQFSEQFPPLLKERLAAFYGV
For the molecule B5, the binding result with APEX2-FUS P525L (human) and in the experiment with APEX2-FUS WT (human) [2] was “binds” throughout.
